Laboratory results: PubChem BioAssay AID485353 (National Center for Advancing Translational Sciences (NCATS), 2010)
Out of some 330,000 compounds screened, about 610 (0.18%) were called active. The inconclusive results got no clear call from the source; some entries with a clear call stand among them for comparison. Calls come from the whole dose curve. Potencies of inconclusive entries are doubtful fits and often do not repeat. Where a structure was tested more than once in an assay, its records may differ in their call.
Potency is the fitted concentration of half-maximal effect.

Assay: qHTS of Yeast-based Assay for SARS-CoV PLP; note: nearly all actives have a fitted effect of over 55% in size; for activity, positive = growth rescue: 0% is about no effect
Details: S. cerevisiae expressing SARS-CoV PLpro; Potency: growth rescue; activity, positive = growth rescue: at 32.9 µM (top of the series)
With `CCCCCC(=O)Nc1ccc(Cc2ccncc2)cc1` the Potency was active: 12.6 µM.
With `O=C(COc1ccc(F)c(Cl)c1)N1CCN(c2ccccn2)CC1` the Potency was inconclusive: 3.98 µM [activator, single point].
For `Cc1ccc(NC(=S)/N=C(\N)Nc2nc(C)c3ccccc3n2)cc1C`, the Potency was active: 10 µM.
With `Cc1cccc(OCCC(=O)Nc2ccc(Cl)cc2F)c1` the Potency was inconclusive: 2.24 µM [activator, single point].
In the case of `CCCCCOc1ccc(CSc2ncn[nH]2)cc1`, the “activity, positive = growth rescue” value is reported as inactive: -43.6%.
For `Cc1csc2ncnc(N3CCN(S(=O)(=O)c4cccc(C(F)(F)F)c4)CC3)c12`, the Potency was inconclusive: 0.398 µM [activator, full curve].
For `COc1cc2c(cc1OC)C1O[C@](CCCCN3C(=O)c4ccccc4C3=O)(C2)OC2=C1C(=O)CC(C)(C)C2`, the Potency was inconclusive: 3.98 µM [activator, single point].
For `C/C(=N\Nc1ccccc1C(=O)O)c1ccncc1`, the “activity, positive = growth rescue” value was inactive: 0.646%.
With `CCCC(=O)N(CCN1CCOCC1)c1nc2c(OCC)cccc2s1` the Potency was inconclusive: 4.47 µM [activator, single point].
For `O=C(N/C(=C/c1cccc([N+](=O)[O-])c1)C(=O)N1CCCCCC1)c1ccco1`, the “activity, positive = growth rescue” value was inactive: 5.75%.
For `O=[N+]([O-])c1ccc(COc2cccc(CNc3ccc(Br)cc3)c2)cc1`, the Potency was inconclusive: 11.2 µM [activator, single point].
In the case of `O=C(c1cc2n(n1)C(C(F)(F)F)CC(c1ccco1)N2)N1CCN(c2ccccn2)CC1` (configuration not stated), the Potency is reported as inconclusive: 3.16 µM [activator, single point].
With `Cc1ccc2c(c1)c(=O)c(Br)c(C)n2Cc1ccccc1` the Potency was inconclusive: 22.4 µM [activator, single point].
For `CCn1nc(NS(=O)(=O)c2ccc(NC(C)=O)cc2)c2cc3cc(C)ccc3nc21`, the “activity, positive = growth rescue” value was inactive: -1.93%.
In the case of `O=C(NC(Cc1ccccc1)C(=O)O)/C(=C/c1ccc([N+](=O)[O-])cc1)NC(=O)c1ccccc1` (configuration not stated), the Potency is reported as inconclusive: 2.82 µM [activator, full curve, poor fit].
With `CCC(C)N(C(=O)CSc1nnc(COc2ccccc2F)n1N)C1CCS(=O)(=O)C1` (configuration not stated) the “activity, positive = growth rescue” value was inactive: -5.93%.
In the case of `N=c1c(S(=O)(=O)c2ccc(Cl)cc2)cc2c(=O)n3ccccc3nc2n1C1CCCC1`, the Potency is reported as inconclusive: 3.98 µM [activator, single point].
For `Cc1c(NC(=O)c2ccccc2NC(=O)c2ccccc2)cccc1C(=O)O`, the Potency was inconclusive: 20 µM [activator, single point].
With `O=C(Nc1ccc(OCC(=O)N2CCOCC2)cc1)c1cccc(Cl)c1` the Potency was inconclusive: 17.8 µM [activator, single point].
With `Cc1cccc(OCCCCCN2CCOCC2)c1C` the “activity, positive = growth rescue” value was inactive: -1.26%.
In the case of `CCCCN(CCCC)C(=O)CSc1nnc2n(C)c(=O)c3c4c(sc3n12)CCCC4`, the “activity, positive = growth rescue” value is reported as inactive: -18.6%.
In the case of `O=C(c1cc(Br)ccc1Cl)N1CCN(c2ccccn2)CC1`, the “activity, positive = growth rescue” value is reported as inactive: -6.45%.
In the case of `CCN(c1ccccc1)S(=O)(=O)c1ccc(Cl)c(NC(=O)Nc2ccc(Cl)cc2C#N)c1`, the “activity, positive = growth rescue” value is reported as inactive: 2.98%.
For `O=C(CSc1oc(-c2ccc(F)cc2)nc1S(=O)(=O)c1ccc(F)cc1)NCC1CCCO1` (configuration not stated), the Potency was inconclusive: 17.8 µM [activator, single point].
For `COc1cccc(-c2ccc3ncnc(NCc4cccs4)c3c2)c1`, the Potency was active: 7.08 µM.
In the case of `O=C(CCN1C(=O)C2C3C=CC(C3)C2C1=O)NCCc1ccccc1Cl` (configuration not stated), the Potency is reported as inconclusive: 20 µM [activator, single point].
For `CCn1c(=O)c(C(=O)NNS(=O)(=O)c2ccc(Cl)cc2)c(O)c2ccccc21`, the Potency was inconclusive: 20 µM [activator, single point].
With `CCc1c(C)c2ccc(OC(C)C(=O)NC(Cc3c[nH]c4ccc(O)cc34)C(=O)O)c(C)c2oc1=O` (configuration not stated) the “activity, positive = growth rescue” value was inactive: 3%.
In the case of `Cc1ccc(NC(=S)NCCc2ccc(F)cc2)c(C)c1`, the Potency is reported as inconclusive: 10 µM [activator, single point].
For `COC(=O)C1=C(C)NC(=O)NC1c1ccsc1` (configuration not stated), the Potency was inconclusive: 10 µM [activator, single point].
In the case of `O=C(CSC1=NNC(c2ccccn2)S1)Nc1cccc(Cl)c1` (configuration not stated), the Potency is reported as inconclusive: 3.98 µM [activator, single point].
For `Cc1ccsc1/C=C/c1ccc2cccc(O)c2n1`, the “activity, positive = growth rescue” value was inactive: -16.2%.
With `Cc1ccc(S(=O)(=O)NC(C(=O)Oc2cc3oc(=O)cc(C)c3cc2Cl)C(C)C)cc1` (configuration not stated) the Potency was active: 22.4 µM.
For `O=C(CSc1nnc(SCc2ccc(Cl)cc2)s1)c1ccc2c(c1)OCO2`, the Potency was inconclusive: 2.82 µM [activator, partial curve].
In the case of `COc1ccc(OC)c(N(CC(=O)NCCSCc2ccco2)S(=O)(=O)c2ccc(OC)c(OC)c2)c1`, the Potency is reported as inconclusive: 4.47 µM [activator, single point].
With `O=C1C2C3C=CC(C4CC34)C2C(=O)N1c1nccs1` (configuration not stated) the Potency was inconclusive: 11.2 µM [activator, partial curve, poor fit].
With `Cc1ccc2c(Cl)c(C(=O)NCC(c3ccco3)N3CCCC3)sc2c1` (configuration not stated) the “activity, positive = growth rescue” value was inactive: -3.45%.
With `Cc1cc(N)n(-c2ccccc2)n1` the “activity, positive = growth rescue” value was inactive: 4.06%.
With `O=C(O)c1cc(S(=O)(=O)NCc2ccco2)c(Cl)cc1Cl` the Potency was inconclusive: 20 µM [activator, single point].
In the case of `Cc1cccc(NC(=O)c2nc[nH]c2C(=O)N[C@@H](Cc2ccccc2)C(=O)OC(C)(C)C)c1`, the “activity, positive = growth rescue” value is reported as inactive: -0.509%.
In the case of `NC(=O)CC[C@H](NC(=O)c1ccc(F)cc1)C(=O)OCC(=O)Nc1ccc(N2CCOCC2)cc1`, the Potency is reported as inconclusive: 20 µM [activator, single point].
For `O=C(COC(=O)CN1C(=O)C2CCCCC2C1=O)NNC(=O)c1ccc(Cl)cc1` (configuration not stated), the “activity, positive = growth rescue” value was inactive: 2.25%.
For `O=C(COC(=O)c1cc(=O)[nH]c(=O)[nH]1)Nc1ccccc1F`, the Potency was inconclusive: 20 µM [activator, single point].
In the case of `COc1ccc(OC)c(-c2c3cc(O)c(=O)cc-3oc3cc(O)c(O)cc23)c1`, the Potency is reported as inconclusive: 20 µM [activator, single point].
In the case of `COc1ccc2nc(N/C(N)=N/C(=S)Nc3ccc(C)c(C)c3)nc(C)c2c1`, the Potency is reported as inconclusive: 11.2 µM [activator, partial curve].
For `CCSc1nnc(SCC(=O)N2CCN(C(=O)c3ccco3)CC2)s1`, the Potency was inconclusive: 4.47 µM [activator, single point].
With `CC(C)(C)N(Cc1ccccc1)C(=O)COC(=O)C1CCCCC1` the Potency was active: 3.16 µM.
With `CCN(C(=O)c1cc2c(C)nc3ccccc3c2o1)c1cc(Cl)ccc1OC` the “activity, positive = growth rescue” value was inactive: -8.31%.
For `COc1cc(C(=S)N2CCCC2)cc(OC)c1O`, the “activity, positive = growth rescue” value was inactive: 15.1%.
With `Cc1cccc(NC(=S)NNC(=O)c2ccccc2Br)c1` the Potency was inconclusive: 14.1 µM [activator, partial curve].
With `CC1CCCCC1NC(=O)C1CCN(c2c3c(nc4ncnn24)CCC3)CC1` (configuration not stated) the Potency was inconclusive: 4.47 µM [activator, partial curve].
For `O=S(=O)(/N=C(/Nc1cccnc1)c1ccccc1)c1ccc(F)cc1F`, the “activity, positive = growth rescue” value was inactive: -0.28%.
For `Cc1cccc(NC(NC(=O)c2ccccn2)C(Cl)(Cl)Cl)c1` (configuration not stated), the Potency was inconclusive: 4.47 µM [activator, partial curve].
With `COc1ccc(Cc2nc3ccc(C(=O)N4CCCN(C=O)CC4)cc3o2)cc1` the Potency was inconclusive: 22.4 µM [activator, single point].
With `CCCOc1cccc(C2/C(=C(/O)c3ccccc3)C(=O)C(=O)N2CCN(C)C)c1` (configuration not stated) the Potency was inconclusive: 15.8 µM [activator, partial curve].
For `O=C(NCc1ccc(CNC(=O)c2ccco2)cc1)c1ccco1`, the Potency was inconclusive: 20 µM [activator, single point].
In the case of `CCOC(=O)c1c(NC(=O)Cn2nc(C(F)(F)F)cc2C)sc(C)c1C`, the Potency is reported as inconclusive: 12.6 µM [activator, single point].
In the case of `Cc1oc(-c2ccc(Cl)cc2)nc1CS(=O)CC(=O)NCCCN1CCOCC1` (configuration not stated), the Potency is reported as inconclusive: 3.98 µM [activator, single point].
For `CSCc1cc(N2CCOCC2)nc(SCc2ccc(Cl)c(Cl)c2)n1`, the Potency was inconclusive: 4.47 µM [activator, single point].
With `Cn1c(O)c(C=Nc2ccc(Br)cc2)c(=O)n(C)c1=O` the “activity, positive = growth rescue” value was inactive: 3.86%.
With `CC(=O)NNc1ncnc2ccccc12` the Potency was inconclusive: 11.2 µM [activator, single point].
In the case of `CCOc1ncccc1C(=O)OCc1ccc(C(=O)OC)o1`, the “activity, positive = growth rescue” value is reported as inactive: 4.97%.
For `CCOc1ccc(NC(=O)CN2C(=O)COc3ccc(Cl)cc32)cc1`, the Potency was inconclusive: 17.8 µM [activator, single point].
In the case of `NC1CCCCC1N=Cc1c(O)n(Cc2ccc(F)cc2)c(=O)[nH]c1=O` (configuration not stated), the Potency is reported as inconclusive: 0.398 µM [activator, full curve].
For `COCC1CCCCN1C(=O)c1ccc(OC2CCN(Cc3ccccn3)CC2)cc1` (configuration not stated), the Potency was inconclusive: 20 µM [activator, single point].
For `CCOC(=O)CN1C(=O)c2ccccc2C1=O`, the “activity, positive = growth rescue” value was inactive: 1.76%.
With `COc1ccc(-c2cc(-c3ccccc3)c(C#N)c(SCC(=O)Nc3ncc(C)s3)n2)cc1` the Potency was inconclusive: 10 µM [activator, partial curve].
With `COCCNC(=O)Cn1cnc2c(cnn2-c2ccc(OC)cc2)c1=O` the “activity, positive = growth rescue” value was inactive: -2.62%.
In the case of `CCc1cc2cc(C)cc(C)c2nc1SCC(=O)N1CCN(C(=O)c2ccco2)CC1`, the Potency is reported as inconclusive: 22.4 µM [activator, single point].
In the case of `CS(=O)(=O)Nc1ccc(C2=NN(S(=O)(=O)c3ccccc3)C(c3cccs3)C2)cc1` (configuration not stated), the “activity, positive = growth rescue” value is reported as inactive: -6.07%.
With `O=C(Nc1nccs1)C1CCCN1S(=O)(=O)c1cccc2cccnc12` (configuration not stated) the Potency was inconclusive: 20 µM [activator, single point].
In the case of `Cc1cc(C(C)(C)C)cc(C)c1COC(=O)CN1C(=O)NC2(CCCC2)C1=O`, the “activity, positive = growth rescue” value is reported as inactive: 4.54%.
